Reference: publication PMC7862700
The entries are a selection whose mix differs from that of the whole data set. For part of these data: At the low end of the ranking the order means little.

Columns and labels:
Assay in all cases: DAPPL (digital affinity profiling via proximity ligation, sequencing)
Settings in all cases: 10 mM Tris-HCl pH 7.5, 50 mM NaCl, 1 mM DTT, 4% glycerol, room temperature, 30 min; GST-TFs on glutathione beads, 16-mer random dsDNA library, 0.1% …; high values mean tight binding; double strand, one strand shown; scale: fold enrichment (6-mer frequency, TF over GST control)
ELK1 = target: T1, ELK1 (UniProt P19419)
T1 sequence: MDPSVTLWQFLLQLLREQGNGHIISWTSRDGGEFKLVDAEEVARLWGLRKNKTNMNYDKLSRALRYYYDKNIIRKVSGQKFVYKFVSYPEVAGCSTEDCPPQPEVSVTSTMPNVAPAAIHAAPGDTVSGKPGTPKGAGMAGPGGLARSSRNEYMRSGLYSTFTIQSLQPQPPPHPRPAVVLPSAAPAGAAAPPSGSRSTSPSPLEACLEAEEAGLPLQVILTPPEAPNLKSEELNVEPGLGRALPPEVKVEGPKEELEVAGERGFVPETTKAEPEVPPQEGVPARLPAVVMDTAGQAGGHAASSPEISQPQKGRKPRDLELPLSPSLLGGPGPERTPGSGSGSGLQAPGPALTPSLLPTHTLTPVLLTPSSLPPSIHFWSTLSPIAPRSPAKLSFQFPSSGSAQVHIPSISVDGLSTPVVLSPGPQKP

ETV3 = target: T2, ETV3 (UniProt P41162-2)
T2 sequence: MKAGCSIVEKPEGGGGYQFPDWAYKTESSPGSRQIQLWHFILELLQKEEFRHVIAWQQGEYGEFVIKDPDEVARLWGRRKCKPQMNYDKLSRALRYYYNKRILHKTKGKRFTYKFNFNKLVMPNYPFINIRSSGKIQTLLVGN

ELK3 = target: T3, ELK3 (UniProt P41970)
T3 sequence: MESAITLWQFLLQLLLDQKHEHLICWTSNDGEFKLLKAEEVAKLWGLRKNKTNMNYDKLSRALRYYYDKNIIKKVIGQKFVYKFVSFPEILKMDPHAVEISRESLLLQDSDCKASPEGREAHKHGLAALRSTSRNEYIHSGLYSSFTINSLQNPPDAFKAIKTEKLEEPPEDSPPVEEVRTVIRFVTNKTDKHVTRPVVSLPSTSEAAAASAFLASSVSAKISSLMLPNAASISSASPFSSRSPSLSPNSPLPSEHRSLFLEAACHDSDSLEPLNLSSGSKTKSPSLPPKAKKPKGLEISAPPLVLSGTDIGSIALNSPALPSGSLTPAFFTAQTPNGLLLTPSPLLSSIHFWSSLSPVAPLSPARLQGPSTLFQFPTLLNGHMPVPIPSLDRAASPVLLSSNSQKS

ETS2 = target: T4, ETS2 (UniProt P15036)
T4 sequence: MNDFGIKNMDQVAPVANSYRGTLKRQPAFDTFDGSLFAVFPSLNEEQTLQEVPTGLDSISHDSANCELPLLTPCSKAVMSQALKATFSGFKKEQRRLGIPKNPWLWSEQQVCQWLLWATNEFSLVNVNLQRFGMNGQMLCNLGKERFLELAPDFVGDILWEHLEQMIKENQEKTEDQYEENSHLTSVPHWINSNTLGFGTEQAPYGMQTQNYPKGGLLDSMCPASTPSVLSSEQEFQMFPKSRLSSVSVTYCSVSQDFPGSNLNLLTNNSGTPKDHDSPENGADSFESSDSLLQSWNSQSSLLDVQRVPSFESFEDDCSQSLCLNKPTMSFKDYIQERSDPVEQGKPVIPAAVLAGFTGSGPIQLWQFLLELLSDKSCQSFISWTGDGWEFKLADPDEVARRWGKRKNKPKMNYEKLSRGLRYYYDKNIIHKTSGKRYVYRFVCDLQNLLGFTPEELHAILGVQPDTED

GTACTC
binding signal (ELK1): 1.09 | binding signal (ETV3): 1.11

CGCTCC
binding signal (ELK1): 1.28 | binding signal (ELK3): 1.37 | binding signal (ETS2): 1.39

ATGAAA
binding signal (ELK1): 1.17 | binding signal (ETV3): 1.1

GCATCC
binding signal (ELK1): 1.67 | binding signal (ETV3): 1.62

TCTCGG
binding signal (ELK1): 1.41 | binding signal (ETV3): 1.37

TTTGAG
binding signal (ELK1): 0.998 | binding signal (ELK3): 0.903 | binding signal (ETV3): 1.22

AAACAT
binding signal (ELK1): 1.4 | binding signal (ETV3): 1.48

ACCATA
binding signal (ELK1): 1.16 | binding signal (ELK3): 1.22 | binding signal (ETV3): 1.19

CGTTCG
binding signal (ELK1): 1.14 | binding signal (ETV3): 1.19

ATACCA
binding signal (ELK1): 1.07 | binding signal (ETV3): 0.987

TATTGG
binding signal (ELK1): 1.14 | binding signal (ELK3): 1.07 | binding signal (ETV3): 1.17

GAAAAG
binding signal (ELK1): 1.01 | binding signal (ELK3): 0.972 | binding signal (ETV3): 0.996

TAATCT
binding signal (ELK1): 1.34 | binding signal (ELK3): 1.46 | binding signal (ETV3): 1.28

TTGTCC
binding signal (ELK1): 1.32 | binding signal (ETV3): 1.36

CCTGGT
binding signal (ELK1): 1.34 | binding signal (ETV3): 1.49

TTCCTT
binding signal (ELK1): 1.79 | binding signal (ELK3): 2.09 | binding signal (ETV3): 2.13

CTATAA
binding signal (ELK1): 1.22 | binding signal (ETV3): 1.14

CCTCAC
binding signal (ELK1): 1.3 | binding signal (ETV3): 1.12

ATACGT
binding signal (ELK1): 1.14 | binding signal (ETV3): 1.14

AAAGAA
binding signal (ELK1): 1.24 | binding signal (ELK3): 1.3 | binding signal (ETV3): 1.2

TCGACC
binding signal (ELK1): 1.32 | binding signal (ELK3): 1.35 | binding signal (ETV3): 1.27

GTGGCT
binding signal (ELK1): 0.997 | binding signal (ELK3): 0.988 | binding signal (ETV3): 1.12

TCGATC
binding signal (ELK1): 1.08 | binding signal (ETV3): 1.18

GCTATT
binding signal (ELK1): 1.34 | binding signal (ETV3): 1.25

ACTACC
binding signal (ELK1): 1.72 | binding signal (ETV3): 1.7

ACTAAC
binding signal (ELK1): 1.3 | binding signal (ETV3): 1.24

CTACGA
binding signal (ELK1): 1.24 | binding signal (ETV3): 1.15

ATGGAA
binding signal (ELK1): 1.11 | binding signal (ETV3): 1.2

AATTGC
binding signal (ELK1): 1.42 | binding signal (ELK3): 1.46

TGCGAT
binding signal (ELK1): 1.12 | binding signal (ELK3): 1.31

AGTATC
binding signal (ELK1): 1.13 | binding signal (ELK3): 1.17

TAGCAC
binding signal (ELK1): 1.12 | binding signal (ELK3): 1.19

CGGCTC
binding signal (ELK1): 1.29 | binding signal (ELK3): 1.31

CGCGAC
binding signal (ELK1): 0.971 | binding signal (ELK3): 0.984

CACTTC
binding signal (ELK1): 3.77 | binding signal (ELK3): 3.97

AATAGA
binding signal (ELK1): 1.09 | binding signal (ELK3): 0.972

GAATAC
binding signal (ELK1): 1.1 | binding signal (ELK3): 0.997

ATATGC
binding signal (ELK1): 1.15 | binding signal (ELK3): 1.05

CTCAAA
binding signal (ELK1): 1.14 | binding signal (ELK3): 1.15 | binding signal (ETV3): 1.2

CGATAA
binding signal (ELK1): 1.02 | binding signal (ELK3): 1.2

TTAGGG
binding signal (ELK1): 1.14 | binding signal (ELK3): 1.07

TCTTGT
binding signal (ELK1): 1.64 | binding signal (ELK3): 1.58

CCTCTC
binding signal (ELK1): 1.39 | binding signal (ELK3): 1.44

GTTACG
binding signal (ELK1): 0.993 | binding signal (ELK3): 1.01

TACCCG
binding signal (ELK1): 1.35 | binding signal (ELK3): 1.37

TTCATC
binding signal (ELK1): 1.28 | binding signal (ELK3): 1.32

ATATGG
binding signal (ELK1): 1.31 | binding signal (ELK3): 1.25

TGCGCT
binding signal (ELK1): 1.3 | binding signal (ELK3): 1.25

AGAATT
binding signal (ELK1): 1.15 | binding signal (ELK3): 1.28

TTGCAT
binding signal (ETS2): 1.42

TGTCCA
binding signal (ELK1): 1.18 | binding signal (ELK3): 1.14

TCGTTC
binding signal (ELK1): 1.15 | binding signal (ELK3): 1.23

TAATTT
binding signal (ETS2): 1.41

CTAAGA
binding signal (ELK1): 1.22 | binding signal (ELK3): 1.18
